HCT116-GFP viability data for 74 molecules are collected here from the supplement of paper PMC9938546.

Counter-ions that a name gives are not always drawn. The list shows a part of the results. Baselines shift from plate to plate; read single values as rough.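 HCT116-GFP, a KRAS-mutant, microsatellite-unstable human colorectal cancer line, constantly expresses green fluorescent protein; immune cells were from healthy donors. Cancer cell survival was tracked by live-cell imaging of green fluorescence, and activated immune cells by themselves reduced survival to roughly half.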

For this test, the system named is HCT116-GFP. Put plainly: HCT116-GFP viability (GFP intensity) relative to untreated HCT116-GFP monoculture control, co-culture with activated PBMCs; higher = less cancer cell killing. The conditions noted are these: culture: co-culture with anti-CD3/IL2 activated PBMCs 1:1; 10 µM; 72 h.
As for `C[C@@H]1C[C@H]2[C@@H]3C[C@H](F)C4=CC(=O)C=C[C@]4(C)[C@@]3(F)[C@@H](O)C[C@]2(C)[C@@]1(O)C(=O)CO` [Flumethasone], the HCT116-GFP viability stood at 103%.

As to `O=C(O)c1cn(-c2ccc(F)cc2)c2cc(N3CCNCC3)c(F)cc2c1=O` [Sarafloxacin], the HCT116-GFP viability was 33.6%.

For the molecule `C[N+]1(C)CCC(OC(=O)C(O)(c2ccccc2)C2CCCC2)C1` (centres undefined) [Glycopyrrolate], the HCT116-GFP viability amounted to 76.7%.

For the molecule `N#Cc1ccc(C(c2ccc(C#N)cc2)n2cncn2)cc1` [Letrozole], the HCT116-GFP viability came out at 34.2%.

In the case of `Clc1ccc(CCC(Cn2ccnc2)Sc2c(Cl)cccc2Cl)cc1` (centres undefined) [Butoconazole nitrate], the HCT116-GFP viability stood at 33.6%.

Consider `CN1CCN(C2=Nc3ccccc3Oc3ccc(Cl)cc32)CC1` [Loxapine succinate], for which the HCT116-GFP viability is 70%.

As to `N=C(NCCCCCCNC(=N)NC(=N)Nc1ccc(Cl)cc1)NC(=N)Nc1ccc(Cl)cc1` [Chlorhexidine], the HCT116-GFP viability turned out to be 28.7%.

On to `NCc1ccccc1CC(=O)N[C@@H]1C(=O)N2C(C(=O)O)=C(CSc3nnnn3CC(=O)O)CS[C@H]12` [Ceforanide], for which the HCT116-GFP viability amounted to 38.4%.

On to `CC(=O)Oc1ccccc1C(=O)Nc1ncc([N+](=O)[O-])s1` [Nitazoxanide], for which the HCT116-GFP viability worked out at 37%.

Turning to `CC(N/C(=N\C#N)Nc1ccncc1)C(C)(C)C` (centres undefined) [Pinacidil], the HCT116-GFP viability stood at 49.6%.

In the case of `CCCCC(O)c1ccccc1` (centres undefined) [Fenipentol], the HCT116-GFP viability was found to be 48%.

`CCN(CC)CCOC(=O)C1(C2CCCCC2)CCCCC1` [Dicyclomine hydrochloride]: the HCT116-GFP viability was 52.8%.

As for `CN(C)CCCN1c2ccccc2Sc2ccc(C(F)(F)F)cc21` [Triflupromazine hydrochloride], the HCT116-GFP viability was found to be 30.4%.

As for `COc1cc(C(=O)OCCCN2CCCN(CCCOC(=O)c3cc(OC)c(OC)c(OC)c3)CC2)cc(OC)c1OC` [Dilazep dihydrochloride], the HCT116-GFP viability was found to be 65.9%.

In the case of `O=C1c2c(O)cccc2Cc2cccc(O)c21` [Anthralin], the HCT116-GFP viability turned out to be 30.3%.

With `CN1CCN(C(c2ccccc2)c2ccccc2)CC1` [Cyclizine hydrochloride], the HCT116-GFP viability came out at 52%.

In the case of `OCCN(CCO)c1nc(N2CCCCC2)c2nc(N(CCO)CCO)nc(N3CCCCC3)c2n1` [Dipyridamole], the HCT116-GFP viability is 77.9%.

Consider `CN(c1nccc(=O)[nH]1)C1CCN(c2nc3ccccc3n2Cc2ccc(F)cc2)CC1` [Mizolastine], for which the HCT116-GFP viability was found to be 63.9%.

For the molecule `O=C(O)c1ccccc1C(=O)Nc1ccc(S(=O)(=O)Nc2nccs2)cc1` [Phthalylsulfathiazole], the HCT116-GFP viability was determined as 69%.

Take `NC[C@@H]1O[C@@H](O[C@H]2[C@H](O)[C@@H](O[C@H]3O[C@H](CO)[C@@H](O)[C@H](N)[C@H]3O)[C@H](N)C[C@@H]2N)[C@@H](O)[C@H](O)[C@H]1O` [Kanamycin A sulfate]: the HCT116-GFP viability is 60.5%.

For `CC1CC(OC(=O)c2ccccc2O)CC(C)(C)C1` (centres undefined) [Homosalate], the HCT116-GFP viability came to 32.3%.

As to `COC(=O)C1=C(C#N)NC(C)=C(C(=O)OC(C)C)C1c1cccc([N+](=O)[O-])c1` (centres undefined) [Nilvadipine], the HCT116-GFP viability amounted to 80.6%.

As for `C#C[C@]1(O)CC[C@H]2[C@@H]3CCC4=CCCC[C@@H]4[C@H]3CC[C@@]21C` [Lynestrenol], the HCT116-GFP viability came to 40.5%.

Consider `C[C@H](CCC(=O)O)[C@H]1CC[C@H]2[C@@H]3[C@@H](O)C[C@@H]4C[C@H](O)CC[C@]4(C)[C@H]3CC[C@]12C` [Urosiol], for which the HCT116-GFP viability turned out to be 60.8%.

With `O=C(CCCN1CCN(c2ccccn2)CC1)c1ccc(F)cc1` [Azaperone], the HCT116-GFP viability was determined as 9.33%.

Turning to `Nc1c2ccccc2nc2ccccc12` [Aminacrine], the HCT116-GFP viability came out at 9.09%.

As for `CN1CCC(=C2c3ccccc3Sc3ccccc32)CC1` [Pimethixene maleate], the HCT116-GFP viability worked out at 52.8%.

`N[C@@H](Cc1cc(I)c(Oc2ccc(O)c(I)c2)c(I)c1)C(=O)O` [Liothyronine]: the HCT116-GFP viability amounted to 72.1%.

`CS(=O)(=O)OCCCCOS(C)(=O)=O` [Busulfan]: the HCT116-GFP viability is 42.6%.

Turning to `Cc1c(NC(=O)c2cccnc2)c(=O)n(-c2ccccc2)n1C` [Nifenazone], the HCT116-GFP viability was determined as 43.8%.

With `CC(C)NC[C@@H](O)COc1ccc(CC(N)=O)cc1` [(R)-(+)-Atenolol], the HCT116-GFP viability came to 80.5%.

Regarding `NS(=O)(=O)c1cc2c(cc1C(F)(F)F)NCNS2(=O)=O` [Hydroflumethiazide], the HCT116-GFP viability stood at 29.4%.

In the case of `CC[C@@H]1C(=O)OC[C@@H]1Cc1cncn1C` [Pilocarpine nitrate], the HCT116-GFP viability was 34.9%.

Consider `CO[C@@H]1[C@@H](O[C@@H]2O[C@H](C)[C@@H](O[C@H]3C[C@@](C)(O)[C@@H](OC(=O)CC(C)C)[C@H](C)O3)[C@H](N(C)C)[C@H]2O)[C@@H](CC=O)C[C@@H](C)[C@@H](O)/C=C/C=C/C[C@@H](C)OC(=O)C[C@H]1OC(C)=O` [Josamycin], for which the HCT116-GFP viability was found to be 34.6%.

For `CC(=O)CC(c1ccccc1)c1c(O)c2ccccc2oc1=O` (centres undefined) [Warfarin], the HCT116-GFP viability stood at 76.2%.

As to `CCN(CC)CC(=O)Nc1c(C)cccc1C` [Lidocaine hydrochloride], the HCT116-GFP viability is 61.7%.

Take `c1ccc2c(CC3=NCCN3)cccc2c1` [Naphazoline hydrochloride]: the HCT116-GFP viability was 35.9%.

For the molecule `CC(=O)OCC(=O)[C@@]12OC(C)(C)O[C@@H]1C[C@H]1[C@@H]3C[C@H](F)C4=CC(=O)C=C[C@]4(C)[C@@]3(F)[C@@H](O)C[C@@]12C` [Fluocinonide], the HCT116-GFP viability turned out to be 89%.

Consider `C=CC1=C(C(=O)O)N2C(=O)[C@@H](NC(=O)/C(=N\O)c3csc(N)n3)[C@H]2SC1` [Cefdinir], for which the HCT116-GFP viability stood at 38.1%.

For the molecule `CC(=O)NS(=O)(=O)c1ccc(N)cc1` [Sulfacetamide sodic hydrate], the HCT116-GFP viability amounted to 42.1%.

For `Cc1cn([C@H]2C=C[C@@H](CO)O2)c(=O)[nH]c1=O` [Stavudine], the HCT116-GFP viability was 72.9%.

Take `COc1cccc2c1C(=O)c1c(O)c3c(c(O)c1C2=O)C[C@@](O)(C(C)=O)C[C@@H]3O[C@H]1C[C@H](N)[C@H](O)[C@H](C)O1` [Daunorubicin hydrochloride]: the HCT116-GFP viability is 5.95%.

For the molecule `C/C=C(/C(=C/C)c1ccc(O)cc1)c1ccc(O)cc1` [Dienestrol], the HCT116-GFP viability is 73.4%.

In the case of `Cc1ncc([N+](=O)[O-])n1CC(C)O` (centres undefined) [Secnidazole], the HCT116-GFP viability came to 63.9%.

With `O=C(O)c1ccccc1OP(=O)(O)O` [Fosfosal], the HCT116-GFP viability is 60%.

For `COc1ccc2cc([C@H](C)C(=O)O)ccc2c1` [Naproxen], the HCT116-GFP viability came to 40.2%.

As for `Nc1cc(N2CCCCC2)nc(N)[n+]1[O-]` [Minoxidil], the HCT116-GFP viability was determined as 34.1%.

Regarding `CC1(C)S[C@@H]2[C@H](NC(=O)[C@H](N)c3ccccc3)C(=O)N2[C@H]1C(=O)O` [Ampicillin trihydrate], the HCT116-GFP viability amounted to 43.4%.

Regarding `O=c1n(CCCN2CCN(c3cccc(Cl)c3)CC2)nc2ccccn12` [Trazodone hydrochloride], the HCT116-GFP viability is 54.3%.

As to `NC(=O)c1cnccn1` [Pyrazinamide], the HCT116-GFP viability is 46.8%.

For the molecule `Cc1nc2ccccn2c(=O)c1CCN1CCC(C(=O)c2ccc(F)cc2)CC1` [Pirenperone], the HCT116-GFP viability is 36.7%.

`CSc1nc2cc(Cl)c(Oc3cccc(Cl)c3Cl)cc2[nH]1` [Triclabendazole]: the HCT116-GFP viability stood at 35.4%.

`O=C(CCNNC(=O)c1ccncc1)NCc1ccccc1` [Nialamide]: the HCT116-GFP viability is 55.9%.

On to `N/C(=N\C(=O)c1nc(Cl)c(N)nc1N)NCc1ccccc1` [Benzamil hydrochloride], for which the HCT116-GFP viability came out at 62.1%.

Regarding `CCCN(CCC)CCc1cccc2c1CC(=O)N2` [Ropinirole hydrochloride], the HCT116-GFP viability worked out at 45.8%.

For the molecule `COc1cccc2c1C(=O)c1c(O)c3c(c(O)c1C2=O)C[C@@](O)(C(=O)CO)C[C@@H]3O[C@H]1C[C@H](N)[C@@H](O)[C@H](C)O1` [Epirubicin hydrochloride], the HCT116-GFP viability worked out at 10.6%.

As to `CC(=O)O[C@H]1C(=O)[C@@]2(C)[C@H]([C@H](OC(=O)c3ccccc3)[C@]3(O)C[C@H](OC(=O)[C@H](O)[C@@H](NC(=O)c4ccccc4)c4ccccc4)C(C)=C1C3(C)C)[C@]1(OC(C)=O)CO[C@@H]1C[C@@H]2O` [Paclitaxel], the HCT116-GFP viability was 2.27%.

For `CN1CCCN=C1/C=C/c1cccc(O)c1` [Oxantel pamoate], the HCT116-GFP viability stood at 45.7%.

Turning to `CC(N)CCCC(C)(C)O` (centres undefined) [Heptaminol hydrochloride], the HCT116-GFP viability is 34.5%.

Regarding `C[C@@H](O[C@H]1OCCN(Cc2n[nH]c(=O)[nH]2)[C@H]1c1ccc(F)cc1)c1cc(C(F)(F)F)cc(C(F)(F)F)c1` [Aprepitant], the HCT116-GFP viability was 51.1%.

Take `CC=CC1=C(C(=O)O)N2C(=O)[C@@H](NC(=O)[C@H](N)c3ccc(O)cc3)[C@H]2SC1` [Cefprozil]: the HCT116-GFP viability is 38%.

`Cc1cc2c(s1)Nc1ccccc1N=C2N1CCN(C)CC1` [Olanzapine]: the HCT116-GFP viability was 67.8%.

For the molecule `CC(C)OC(=O)C(C)(C)Oc1ccc(C(=O)c2ccc(Cl)cc2)cc1` [Fenofibrate], the HCT116-GFP viability was determined as 36.8%.

Take `Cc1c(O)c(=O)n(-c2ccccc2)n1C` [Antipyrine, 4-hydroxy]: the HCT116-GFP viability is 33.4%.

Regarding `Nc1ncnc2c1ncn2C1OC(COP(=O)(O)O)C(O)C1O` (centres undefined) [Adenosine 5'-monophosphate monohydrate], the HCT116-GFP viability was found to be 41.9%.

Take `CCOc1ccc2nc(S(N)(=O)=O)sc2c1` [Ethoxzolamide]: the HCT116-GFP viability was 33.2%.

As for `C[C@@H]1C[C@H]2[C@@H]3CCC4=CC(=O)C=C[C@]4(C)[C@@]3(Cl)[C@@H](O)C[C@]2(C)[C@@]1(OC(=O)c1ccco1)C(=O)CCl` [Mometasone furoate], the HCT116-GFP viability came to 44.1%.

Regarding `CN1CCCN(C(c2ccccc2)c2ccc(Cl)cc2)CC1` (centres undefined) [Homochlorcyclizine dihydrochloride], the HCT116-GFP viability stood at 42.4%.

For the molecule `CCCCc1ccc2[nH]c(NC(=O)OC)nc2c1` [Parbendazole], the HCT116-GFP viability was determined as 2.35%.

As for `C/C(=C\C(=O)OCCCCCCCCC(=O)O)C[C@@H]1OC[C@H](C[C@@H]2O[C@H]2[C@@H](C)[C@H](C)O)[C@@H](O)[C@H]1O` [Mupirocin], the HCT116-GFP viability was 34%.

On to `CCc1cccc(CC)c1NC(=O)CN(CC(=O)O)CC(=O)O` [Etifenin], for which the HCT116-GFP viability amounted to 47.9%.

Turning to `CN/C(=N\CCSCc1nc[nH]c1C)NC#N` [Cimetidine], the HCT116-GFP viability was 36.1%.

As for `O=C(O)c1cc(/N=N/c2ccc(S(=O)(=O)Nc3ccccn3)cc2)ccc1O` [Sulfasalazine], the HCT116-GFP viability worked out at 29.8%.

Turning to `CNC[C@H](O)[C@@H](O)[C@H](O)[C@H](O)CO` [Meglumine], the HCT116-GFP viability is 75.9%.
